# Data as given in paper doi:10.1101/2019.12.18.879569.
# No constants are given. Whether binding was seen depends on the method and setting. Binding calls can cover weak binding; strength is not graded here. For some assays here: Binding seen in cells or lysates may run through a third protein. For some assays here: Sequences can lack the tags named with a protein.
# Molecular target: T1, Gal4 binding domain GBD-AC40 (S. cerevisiae) (UniProt P07703)
# T1 sequence: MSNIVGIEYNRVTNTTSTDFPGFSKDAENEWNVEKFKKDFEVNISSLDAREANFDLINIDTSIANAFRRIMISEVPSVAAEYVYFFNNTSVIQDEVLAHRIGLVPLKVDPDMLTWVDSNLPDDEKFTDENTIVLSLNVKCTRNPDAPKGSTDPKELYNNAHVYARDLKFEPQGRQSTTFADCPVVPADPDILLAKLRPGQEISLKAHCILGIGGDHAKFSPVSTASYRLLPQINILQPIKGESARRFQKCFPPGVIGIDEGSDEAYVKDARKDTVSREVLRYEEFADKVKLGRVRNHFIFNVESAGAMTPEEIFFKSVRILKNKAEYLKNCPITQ
# Assay: two-hybrid
row,Substance,binding
1,GAD fused to the entire bNLS sequence (GAD-IN_(596-630)) (S. cerevisiae) (domain or fragment),binds
2,GAD-IN1_(1-578) (S. cerevisiae) (domain or fragment),no binding
3,GAD-IN1_(578-635) E623A (S. cerevisiae) (domain or fragment),binds
4,GAD-IN1_(578-635) K617A (S. cerevisiae) (domain or fragment),no binding
5,GAD-IN1_(578-635) L622A (S. cerevisiae) (domain or fragment),no binding
6,GAD-IN1_(578-635) M619A (S. cerevisiae) (domain or fragment),no binding
7,GAD-IN1_(578-635) N618A (S. cerevisiae) (domain or fragment),binds
8,GAD-IN1_(578-635) R620A (S. cerevisiae) (domain or fragment),no binding
9,GAD-IN1_(578-635) S621A (S. cerevisiae) (domain or fragment),no binding
10,GAD-IN1_(578-635) VS_(609-610)AA (S. cerevisiae) (domain or fragment),binds
11,GAD-IN5 (WT Ty5 integrase) (S. cerevisiae),no binding
12,GAD-IN5 lacking TD5 (IN5_(∆TD5)) (S. cerevisiae),no binding
13,Gal4 activating domain GAD-IN1_(578-635) fusion protein (S. cerevisiae) (domain or fragment),binds

# Molecular target: T2, AC40-Twin-Strep-tag (S. cerevisiae) (UniProt P07703)
# T2 sequence: T1 sequence
# Assay: co-IP
row,Substance,binding
1,"IN1-EPEA (Glu-Pro-Glu-Ala) tagged Ty1 integrase, WT (S. cerevisiae)",binds
